Laboratory results reported in publication doi:10.1101/2020.10.23.342113.
These are yes or no findings as the source states them, for the method shown. Binding seen in cells or lysates may run through a third protein. Here binding means that the protein was enriched with, or labelled near, the bait; the list need not be complete.

B1: Ras-GTPase-activating protein SH3-domain-binding protein 2 (G3BP2), endogenous (protein, UniProt Q9UN86 1-482)
chain: MVMEKPSPLLVGREFVRQYYTLLNKAPEYLHRFYGRNSSYVHGGVDASGKPQEAVYGQNDIHHKVLSLNFSECHTKIRHVDAHATLSDGVVVQVMGLLSNSGQPERKFMQTFVLAPEGSVPNKFYVHNDMFRYEDEVFGDSEPELDEESEDEVEEEQEERQPSPEPVQENANSGYYEAHPVTNGIEEPLEESSHEPEPEPESETKTEELKPQVEEKNLEELEEKSTTPPPAEPVSLPQEPPKAFSWASVTSKNLPPSGTVSSSGIPPHVKAPVSQPRVEAKPEVQSQPPRVREQRPRERPGFPPRGPRPGRGDMEQNDSDNRRIIRYPDSHQLFVGNLPHDIDENELKEFFMSFGNVVELRINTKGVGGKLPNFGFVVFDDSEPVQRILIAKPIMFRGEVRLNVEEKKTRAARERETRGGGDDRRDIRRNDRGPGGPRGIVGGGMMRDRDGRGPPPRGGMAQKLGSGRGTGQMEGRFTGQRR
B2: ATXN2l, endogenous (protein, UniProt Q8WWM7 1-1075)
chain: MLKPQPLQQPSQPQQPPPTQQAVARRPPGGTSPPNGGLPGPLATSAAPPGPPAAASPCLGPVAAAGSGLRRGAEGILAPQPPPPQQHQERPGAAAIGSARGQSTGKGPPQSPVFEGVYNNSRMLHFLTAVVGSTCDVKVKNGTTYEGIFKTLSSKFELAVDAVHRKASEPAGGPRREDIVDTMVFKPSDVMLVHFRNVDFNYATKDKFTDSAIAMNSKVNGEHKEKVLQRWEGGDSNSDDYDLESDMSNGWDPNEMFKFNEENYGVKTTYDSSLSSYTVPLEKDNSEEFRQRELRAAQLAREIESSPQYRLRIAMENDDGRTEEEKHSAVQRQGSGRESPSLASREGKYIPLPQRVREGPRGGVRCSSSRGGRPGLSSLPPRGPHHLDNSSPGPGSEARGINGGPSRMSPKAQRPLRGAKTLSSPSNRPSGETSVPPPPAVGRMYPPRSPKSAAPAPISASCPEPPIGSAVPTSSASIPVTSSVSDPGVGSISPASPKISLAPTDVKELSTKEPGRTLEPQELARIAGKVPGLQNEQKRFQLEELRKFGAQFKLQPSSSPENSLDPFPPRILKEEPKGKEKEVDGLLTSEPMGSPVSSKTESVSDKEDKPPLAPSGGTEGPEQPPPPCPSQTGSPPVGLIKGEDKDEGPVAEQVKKSTLNPNAKEFNPTKPLLSVNKSTSTPTSPGPRTHSTPSIPVLTAGQSGLYSPQYISYIPQIHMGPAVQAPQMYPYPVSNSVPGQQGKYRGAKGSLPPQRSDQHQPASAPPMMQAAAAAGPPLVAATPYSSYIPYNPQQFPGQPAMMQPMAHYPSQPVFAPMLQSNPRMLTSGSHPQAIVSSSTPQYPSAEQPTPQALYATVHQSYPHHATQLHAHQPQPATTPTGSQPQSQHAAPSPVQHQAGQAPHLGSGQPQQNLYHPGALTGTPPSLPPGPSAQSPQSSFPQPAAVYAIHHQQLPHGFTNMAHVTQAHVQTGITAAPPPHPGAPHPPQVMLLHPPQSHGGPPQGAVPQSGVPALSASTPSPYPYIGHPQGEQPGQAPGFPGGADDRIREFSLAGGIWHGRAEGLQVGQDARVLGGE
B3: NUFIP2, endogenous (protein, UniProt Q7Z417 1-695)
chain: MEEKPGQPQPQHHHSHHHPHHHPQQQQQQPHHHHHYYFYNHSHNHHHHHHHQQPHQYLQHGAEGSPKAQPKPLKHEQKHTLQQHQETPKKKTGYGELNGNAGEREISLKNLSSDEATNPISRVLNGNQQVVDTSLKQTVKANTFGKAGIKTKNFIQKNSMDKKNGKSYENKSGENQSVDKSDTIPIPNGVVTNNSGYITNGYMGKGADNDGSGSESGYTTPKKRKARRNSAKGCENLNIVQDKIMQQETSVPTLKQGLETFKPDYSEQKGNRVDGSKPIWKYETGPGGTSRGKPAVGDMLRKSSDSKPGVSSKKFDDRPKGKHASAVASKEDSWTLFKPPPVFPVDNSSAKIVPKISYASKVKENLNKTIQNSSVSPTSSSSSSSSTGETQTQSSSRLSQVPMSALKSVTSANFSNGPVLAGTDGNVYPPGGQPLLTTAANTLTPISSGTDSVLQDMSLTSAAVEQIKTSLFIYPSNMQTMLLSTAQVDLPSQTDQQNLGDIFQNQWGLSFINEPSAGPETVTGKSSEHKVMEVTFQGEYPATLVSQGAEIIPSGTEHPVFPKAYELEKRTSPQVLGSILKSGTTSESGALSLEPSHIGDLQKADTSSQGALVFLSKDYEIESQNPLASPTNTLLGSAKEQRYQRGLERNDSWGSFDLRAAIVYHTKEMESIWNLQKQDPKRIITYNEAMDSPDQ

Biological target: G3BP1 used as the bait for AP-MS (UniProt Q13283)
Experiment: affinity purification with mass spectrometry

Row | Binder | binding
1 | B1 | binds
2 | B2 | binds
3 | B3 | binds
